# Data taken from the supplement of paper PMC7666118.
# The list shows a part of the results.
# Target: VKORC1 (UniProt Q9BQB6)
# Assay: dose-dependent thermal stabilisation call (2D-TPP, DLPTP, 10% FDR) (binary (1 = stabilised)); higher = stabilised by the compound
# Conditions: system: HL-60 intact cells; concentration range 0.04-10 µM
# Experimental: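 2D thermal proteome profiling in intact HL-60 cells treated with BRD-3811 (0, 0.04, 0.29, 2, 10 uM) for 90 min at 37 C, then heated 3 min at one of 12 temperatures (42-63.9 C). Soluble protein was quantified by TMT10 MS. The value is the DLPTP call of the paper: dose-dependent thermal stabilisation over all temperatures at 10% FDR (F-test of a dose-response against a flat model); one experiment, one call per tested protein.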
row,SMILES,dose-dependent thermal stabilisation call
1,COc1ccc(Cn2ccc3cc(C)c(C(=O)NO)cc32)cc1,inactive: 0
